{"source": "paper doi:10.1101/2021.03.22.436447", "target": "spectacled caiman (Caiman crocodilus) hemoglobin tetramer (Caiman crocodilus (endogenous in red blood cells)) (UniProt P02000+P02131)", "assay": "SEC", "note": "Results are given in words; binding and its absence hold for the method and conditions named. Some results given as binding are weak or reduced against the parent protein; the word gives no strength.", "data": [{"substance": "spectacled caiman (Caiman crocodilus) hemoglobin tetramer (from UniProt P02000 1-141; P02131 1-146) (complex)", "values": [{"measurement": "binding", "value": "binds"}]}]}
